The list shows a part of the results. Residues, ends and D or L forms follow the SMILES beside them. *: point of attachment. Cbz = O=C(OCc1ccccc1)*
Legend:
Experiment in all cases: log2 fold change, soluble protein after heating vs DMSO (PISA); higher = thermal stabilisation; K562 cells, 10 uM, 30 min; active = over 0.2 and 3.5 SD of the protein, either way, in both replicates (recomputed)
erlotinib = compound: C#Cc1cccc(Nc2ncnc3cc(OCCOC)c(OCCOC)cc23)c1 [erlotinib]
Summary of the method: (§1)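 Quantification of soluble protein used TMTpro 16plex LC-MS/MS, with channel sums equalised. Samples were the supernatant after 21,000xg for 90 min of pooled aliquots from K562 cells (2×10^6 cells/mL) treated with 10 μM compound for 30 min, heated for 3 min over 48°C-58°C, and extracted in PBS with 0.5% NP-40 at 4°C. Values, from duplicates, describe thermal stability against control samples on a log2 fold-change scale.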

The chains behind the UniProt entries cited, without tags or fusion partners. Where a name states a change or a piece, a line headed by the entry shows the natural chain unless it says otherwise.
UniProt Q8TF46, whole entry, looked up: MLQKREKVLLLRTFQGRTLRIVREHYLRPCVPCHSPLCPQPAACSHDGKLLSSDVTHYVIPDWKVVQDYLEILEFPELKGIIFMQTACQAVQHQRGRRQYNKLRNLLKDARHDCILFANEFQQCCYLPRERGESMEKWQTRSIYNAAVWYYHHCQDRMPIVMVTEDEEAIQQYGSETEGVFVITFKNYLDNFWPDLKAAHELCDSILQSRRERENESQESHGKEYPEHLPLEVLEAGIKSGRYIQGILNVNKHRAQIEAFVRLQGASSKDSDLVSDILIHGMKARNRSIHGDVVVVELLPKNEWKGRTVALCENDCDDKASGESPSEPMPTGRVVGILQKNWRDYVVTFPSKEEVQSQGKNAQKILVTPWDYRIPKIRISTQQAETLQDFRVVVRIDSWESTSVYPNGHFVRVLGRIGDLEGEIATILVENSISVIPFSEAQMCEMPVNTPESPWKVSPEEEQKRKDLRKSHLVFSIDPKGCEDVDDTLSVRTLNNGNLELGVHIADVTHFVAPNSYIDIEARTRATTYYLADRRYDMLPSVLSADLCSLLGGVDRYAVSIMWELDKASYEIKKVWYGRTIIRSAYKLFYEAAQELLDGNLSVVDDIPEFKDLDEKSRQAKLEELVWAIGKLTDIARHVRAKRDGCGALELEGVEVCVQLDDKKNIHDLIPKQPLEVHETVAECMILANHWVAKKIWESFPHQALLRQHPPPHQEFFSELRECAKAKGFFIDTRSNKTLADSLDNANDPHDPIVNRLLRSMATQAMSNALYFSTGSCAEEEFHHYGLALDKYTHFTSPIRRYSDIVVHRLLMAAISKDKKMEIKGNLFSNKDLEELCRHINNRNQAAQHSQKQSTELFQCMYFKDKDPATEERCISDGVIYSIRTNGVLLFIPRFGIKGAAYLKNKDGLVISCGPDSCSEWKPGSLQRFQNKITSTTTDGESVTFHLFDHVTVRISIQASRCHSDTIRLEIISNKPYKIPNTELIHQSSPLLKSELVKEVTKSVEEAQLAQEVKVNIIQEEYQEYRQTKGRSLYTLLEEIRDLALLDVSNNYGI
UniProt Q8TE73: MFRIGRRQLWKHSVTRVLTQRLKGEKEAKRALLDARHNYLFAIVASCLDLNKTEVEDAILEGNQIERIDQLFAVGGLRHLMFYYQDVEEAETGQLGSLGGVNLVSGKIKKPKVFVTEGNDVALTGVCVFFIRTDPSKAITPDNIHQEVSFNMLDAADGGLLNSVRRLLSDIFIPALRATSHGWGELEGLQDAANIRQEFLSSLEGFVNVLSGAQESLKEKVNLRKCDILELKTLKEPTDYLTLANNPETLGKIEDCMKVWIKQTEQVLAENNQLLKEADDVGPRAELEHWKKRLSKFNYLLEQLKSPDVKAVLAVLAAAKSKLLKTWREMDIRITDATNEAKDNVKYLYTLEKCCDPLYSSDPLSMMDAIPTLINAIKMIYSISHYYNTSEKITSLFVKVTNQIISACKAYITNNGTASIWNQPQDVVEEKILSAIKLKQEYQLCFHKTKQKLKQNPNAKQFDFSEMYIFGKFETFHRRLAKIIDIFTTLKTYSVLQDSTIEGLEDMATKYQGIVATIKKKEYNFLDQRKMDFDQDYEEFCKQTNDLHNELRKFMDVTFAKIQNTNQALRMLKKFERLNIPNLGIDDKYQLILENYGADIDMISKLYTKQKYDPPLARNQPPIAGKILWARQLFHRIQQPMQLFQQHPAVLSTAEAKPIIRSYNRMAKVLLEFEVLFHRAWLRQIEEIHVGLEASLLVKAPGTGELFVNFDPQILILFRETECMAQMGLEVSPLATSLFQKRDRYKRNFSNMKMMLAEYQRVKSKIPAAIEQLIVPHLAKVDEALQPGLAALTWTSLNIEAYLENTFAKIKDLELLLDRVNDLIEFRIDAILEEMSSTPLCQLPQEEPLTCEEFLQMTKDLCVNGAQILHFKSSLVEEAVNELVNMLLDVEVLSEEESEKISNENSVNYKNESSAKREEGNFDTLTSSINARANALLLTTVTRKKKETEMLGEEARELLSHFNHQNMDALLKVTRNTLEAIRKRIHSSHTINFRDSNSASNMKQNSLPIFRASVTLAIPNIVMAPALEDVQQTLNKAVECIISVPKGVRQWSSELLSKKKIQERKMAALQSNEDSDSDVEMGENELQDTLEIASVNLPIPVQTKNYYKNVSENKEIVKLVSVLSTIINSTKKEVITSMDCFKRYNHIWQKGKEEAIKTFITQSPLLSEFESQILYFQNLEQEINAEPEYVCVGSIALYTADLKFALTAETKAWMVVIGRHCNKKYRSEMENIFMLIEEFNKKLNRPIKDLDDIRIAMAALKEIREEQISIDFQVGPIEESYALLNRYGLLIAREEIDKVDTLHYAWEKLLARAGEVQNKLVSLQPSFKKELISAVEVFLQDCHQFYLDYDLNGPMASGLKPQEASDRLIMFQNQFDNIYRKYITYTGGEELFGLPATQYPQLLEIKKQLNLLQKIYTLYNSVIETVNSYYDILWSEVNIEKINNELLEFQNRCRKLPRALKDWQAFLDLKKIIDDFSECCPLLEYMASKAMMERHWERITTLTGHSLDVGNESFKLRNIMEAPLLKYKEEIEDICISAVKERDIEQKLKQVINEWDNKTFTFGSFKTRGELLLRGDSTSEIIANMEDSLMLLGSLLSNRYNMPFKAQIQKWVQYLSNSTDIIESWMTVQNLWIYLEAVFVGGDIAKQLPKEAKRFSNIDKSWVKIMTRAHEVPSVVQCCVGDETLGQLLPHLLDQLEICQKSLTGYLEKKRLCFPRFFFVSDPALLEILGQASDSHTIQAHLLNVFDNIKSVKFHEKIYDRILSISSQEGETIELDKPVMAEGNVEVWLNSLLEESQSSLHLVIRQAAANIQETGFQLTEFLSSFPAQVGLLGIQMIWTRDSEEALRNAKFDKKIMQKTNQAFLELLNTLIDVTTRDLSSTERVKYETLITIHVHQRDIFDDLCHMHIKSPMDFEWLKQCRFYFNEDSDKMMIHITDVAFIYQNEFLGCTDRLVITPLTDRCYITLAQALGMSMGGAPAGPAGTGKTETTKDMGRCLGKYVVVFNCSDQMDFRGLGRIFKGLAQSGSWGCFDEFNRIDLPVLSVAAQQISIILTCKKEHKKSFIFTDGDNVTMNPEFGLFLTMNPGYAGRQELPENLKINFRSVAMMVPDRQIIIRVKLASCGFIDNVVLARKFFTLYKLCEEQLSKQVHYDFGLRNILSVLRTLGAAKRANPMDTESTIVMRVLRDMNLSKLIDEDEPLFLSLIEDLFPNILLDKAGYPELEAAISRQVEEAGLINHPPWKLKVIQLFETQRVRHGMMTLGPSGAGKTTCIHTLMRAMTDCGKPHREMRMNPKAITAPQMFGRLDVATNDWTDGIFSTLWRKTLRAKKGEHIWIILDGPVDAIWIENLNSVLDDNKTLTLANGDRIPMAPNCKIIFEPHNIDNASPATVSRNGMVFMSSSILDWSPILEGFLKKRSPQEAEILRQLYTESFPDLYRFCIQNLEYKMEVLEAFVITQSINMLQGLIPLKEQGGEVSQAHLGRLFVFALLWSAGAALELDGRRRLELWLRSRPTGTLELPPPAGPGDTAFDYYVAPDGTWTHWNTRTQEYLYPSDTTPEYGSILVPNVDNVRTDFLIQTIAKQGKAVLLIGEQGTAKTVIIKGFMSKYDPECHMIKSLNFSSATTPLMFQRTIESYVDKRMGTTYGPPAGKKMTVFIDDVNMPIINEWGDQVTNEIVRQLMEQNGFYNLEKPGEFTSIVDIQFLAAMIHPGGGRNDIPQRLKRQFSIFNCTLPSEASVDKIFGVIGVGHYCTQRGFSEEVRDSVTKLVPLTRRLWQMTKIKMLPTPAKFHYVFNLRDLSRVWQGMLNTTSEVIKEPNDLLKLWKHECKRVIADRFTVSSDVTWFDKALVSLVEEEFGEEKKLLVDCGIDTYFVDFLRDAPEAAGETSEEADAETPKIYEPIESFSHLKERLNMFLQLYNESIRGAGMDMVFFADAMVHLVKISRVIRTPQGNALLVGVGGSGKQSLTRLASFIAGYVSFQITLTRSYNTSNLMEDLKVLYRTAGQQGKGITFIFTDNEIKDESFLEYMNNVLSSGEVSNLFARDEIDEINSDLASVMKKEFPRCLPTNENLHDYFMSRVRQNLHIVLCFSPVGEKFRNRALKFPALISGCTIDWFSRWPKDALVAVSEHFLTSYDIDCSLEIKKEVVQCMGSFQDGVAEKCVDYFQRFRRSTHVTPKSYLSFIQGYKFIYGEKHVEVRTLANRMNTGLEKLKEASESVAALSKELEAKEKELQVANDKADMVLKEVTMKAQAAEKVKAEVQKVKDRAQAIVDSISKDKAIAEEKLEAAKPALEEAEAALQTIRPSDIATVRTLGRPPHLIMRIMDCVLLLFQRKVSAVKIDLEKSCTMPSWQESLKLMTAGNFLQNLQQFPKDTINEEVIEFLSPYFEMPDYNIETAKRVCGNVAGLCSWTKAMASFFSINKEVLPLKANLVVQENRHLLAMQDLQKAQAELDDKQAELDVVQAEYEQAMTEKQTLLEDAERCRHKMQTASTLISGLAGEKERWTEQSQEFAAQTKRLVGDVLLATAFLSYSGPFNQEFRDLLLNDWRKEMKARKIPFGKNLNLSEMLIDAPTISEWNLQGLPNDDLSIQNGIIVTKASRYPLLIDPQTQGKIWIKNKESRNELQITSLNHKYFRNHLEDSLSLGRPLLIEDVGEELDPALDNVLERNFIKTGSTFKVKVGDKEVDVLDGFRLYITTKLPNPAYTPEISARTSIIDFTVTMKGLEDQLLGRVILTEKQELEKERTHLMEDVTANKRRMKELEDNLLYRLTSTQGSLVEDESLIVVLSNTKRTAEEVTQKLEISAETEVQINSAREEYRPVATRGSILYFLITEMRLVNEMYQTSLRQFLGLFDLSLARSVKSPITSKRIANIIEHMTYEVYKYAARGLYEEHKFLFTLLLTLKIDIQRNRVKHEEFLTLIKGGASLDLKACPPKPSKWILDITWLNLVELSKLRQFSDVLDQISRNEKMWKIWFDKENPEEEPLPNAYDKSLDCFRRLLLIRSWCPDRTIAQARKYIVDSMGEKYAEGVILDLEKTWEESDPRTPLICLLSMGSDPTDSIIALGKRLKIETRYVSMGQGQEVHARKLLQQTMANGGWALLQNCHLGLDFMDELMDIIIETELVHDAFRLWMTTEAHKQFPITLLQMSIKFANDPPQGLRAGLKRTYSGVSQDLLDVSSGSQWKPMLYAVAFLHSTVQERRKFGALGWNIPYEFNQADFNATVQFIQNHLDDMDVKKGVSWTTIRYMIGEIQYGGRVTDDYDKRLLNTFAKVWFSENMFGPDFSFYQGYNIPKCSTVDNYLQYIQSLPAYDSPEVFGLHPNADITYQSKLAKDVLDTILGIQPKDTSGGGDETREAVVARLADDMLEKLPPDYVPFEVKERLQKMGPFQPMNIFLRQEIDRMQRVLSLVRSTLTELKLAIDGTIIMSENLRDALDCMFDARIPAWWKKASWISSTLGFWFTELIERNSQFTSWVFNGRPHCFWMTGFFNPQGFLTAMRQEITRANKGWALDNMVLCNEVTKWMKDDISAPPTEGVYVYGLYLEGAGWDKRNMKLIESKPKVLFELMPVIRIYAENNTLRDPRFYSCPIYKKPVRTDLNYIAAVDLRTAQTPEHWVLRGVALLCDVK
UniProt Q08345: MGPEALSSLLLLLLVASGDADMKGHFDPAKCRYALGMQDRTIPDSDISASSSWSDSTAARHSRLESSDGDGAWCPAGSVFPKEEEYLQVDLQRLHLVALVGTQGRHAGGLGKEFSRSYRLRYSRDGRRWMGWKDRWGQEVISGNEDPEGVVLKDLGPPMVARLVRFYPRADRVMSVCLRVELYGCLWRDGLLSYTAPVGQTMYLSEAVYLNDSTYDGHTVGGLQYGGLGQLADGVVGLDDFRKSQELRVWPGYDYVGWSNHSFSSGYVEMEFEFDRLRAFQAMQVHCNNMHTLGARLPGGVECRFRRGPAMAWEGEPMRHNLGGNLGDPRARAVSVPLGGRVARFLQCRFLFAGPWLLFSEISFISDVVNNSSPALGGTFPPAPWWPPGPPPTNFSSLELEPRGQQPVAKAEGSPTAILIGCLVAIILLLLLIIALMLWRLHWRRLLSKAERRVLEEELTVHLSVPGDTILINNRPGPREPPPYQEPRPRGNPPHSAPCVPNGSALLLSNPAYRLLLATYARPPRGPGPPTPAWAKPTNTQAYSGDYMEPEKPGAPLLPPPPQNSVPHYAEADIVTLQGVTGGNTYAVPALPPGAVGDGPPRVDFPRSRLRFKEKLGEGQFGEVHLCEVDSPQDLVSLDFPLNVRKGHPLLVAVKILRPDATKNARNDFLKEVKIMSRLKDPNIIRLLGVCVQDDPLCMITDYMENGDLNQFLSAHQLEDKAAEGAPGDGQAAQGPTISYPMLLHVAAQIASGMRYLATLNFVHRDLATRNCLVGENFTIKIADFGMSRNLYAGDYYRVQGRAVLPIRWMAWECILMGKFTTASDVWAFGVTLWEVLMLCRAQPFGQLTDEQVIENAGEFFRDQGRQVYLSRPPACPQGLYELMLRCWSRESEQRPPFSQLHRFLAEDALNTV

[1] = compound: C/C(=N\NC(=O)C1=CC(=CC=C1)S(=O)(=O)N2CCOCC2)/C3=C(C=CC(=C3)Cl)O
Summary of the method: as §1

[2] = compound: C1=CC(=C(C=C1Cl)C2=NC3=NC=CN=C3C(=N2)NC4=CC=NC=C4)F
Summary of the method: as §1

[3] = compound: C1=CC(=CC=C1C2=NC3=C(N2)C=C(C=C3)C(=O)N)OC4=CC=C(C=C4)Cl
Summary of the method: as §1

[4] = compound: C1=CC2=C(C=CC(=C2)/C=C\3/C(=O)NC(=NCC4=CC=CS4)S3)N=C1
Summary of the method: as §1

[5] = compound: C1=CC2=NC=CN=C2C=C1/C=C/3\C(=O)NC(=O)S3
Summary of the method: as §1

[6] = compound: C1=CC=C(C=C1)C2=NC(=C(N2)C3=CC=NC=C3)C4=CC(=C(C=C4)Cl)O
Summary of the method: as §1

[7] = compound: C1=CC=C2C(=C1)C3=NNC4=CC=CC(=C43)C2=O
Summary of the method: as §1

[8] = compound: C1CCN(C1)C(=O)NC2=CC=CC(=C2)NC3=NC=C(C(=N3)NCCC4=CN=CN4)Br
Summary of the method: as §1

[9] = compound: C1CN(CCC1(CC2=CC=C(C=C2)Cl)N)C3=NC=NC4=C3C=CN4
Summary of the method: as §1

IRAK-1-4 Inhibitor I = compound: C1COCCN1CCN2C3=CC=CC=C3N=C2NC(=O)C4=CC(=CC=C4)[N+](=O)[O-] [IRAK-1-4 Inhibitor I]
Summary of the method: as §1

ibrutinib = compound: C=CC(=O)N1CCC[C@@H](n2nc(-c3ccc(Oc4ccccc4)cc3)c3c(N)ncnc32)C1 [ibrutinib]
Summary of the method: as §1

[10] = compound: CC(=O)c1cnc2ccc(-c3cc(Cl)c(O)c(Cl)c3)nc2c1N[C@H]1CC[C@H](CN(C)C)CC1
Summary of the method: as §1

ralimetinib = compound: CC(C)(C)Cn1c(N)nc2ccc(-c3[nH]c(C(C)(C)C)nc3-c3ccc(F)cc3)nc21 [ralimetinib]
Summary of the method: as §1

[11] = compound: CC(C)(O)CC(=O)NCCn1ccc2ncnc(Nc3ccc(Oc4cccc(C(F)(F)F)c4)c(Cl)c3)c21
Summary of the method: as §1

[12] = compound: CC(C)C1=C2N=C(C=C(N2N=C1)NCC3=CC=CC=C3)NCCCCCCN
Summary of the method: as §1

[13] = compound: CC(C)C[C@@H](C=O)NC(=O)[C@H](CC(C)C)NC(=O)[C@H](CC(C)C)NC(=O)OCc1ccccc1
Summary of the method: as §1

pinometostat = compound: CC(C)N(C[C@H]1O[C@@H](n2cnc3c(N)ncnc32)[C@H](O)[C@@H]1O)[C@H]1C[C@@H](CCc2nc3cc(C(C)(C)C)ccc3[nH]2)C1 [pinometostat]
Summary of the method: as §1

[14] = compound: CC1=C(C2=C(C=C1)C(=O)C3=CC=CC=C3N2CCCN)C
Summary of the method: as §1

[15] = compound: CC1=C(C(CC(=O)N1)C2=CC=C(C=C2)C(F)(F)F)C(=O)NC3=C(C=C4C(=C3)C=NN4)F
Summary of the method: as §1

Measured: log2 fold change

DNAAF2 (UniProt Q9NVR5)
inactive: erlotinib 0.046 | [1] 0.021 | [2] 0.108 | [3] -0.003 | [4] 0.01 | [5] 0.016 | [6] -0.018 | [7] -0.025 | [8] 0.021 | [9] -0.025 | IRAK-1-4 Inhibitor I -0.02 | ibrutinib -0.023 | [10] 0.014 | ralimetinib 0.022 | [11] 0.013 | [12] -0.025 | [13] -0.054 | pinometostat -0.023 | [14] -0.013

DIS3L (UniProt Q8TF46)
inactive: erlotinib -0.08 | [1] 0.038 | [2] -0.165 | [3] 0.031 | [4] 0.012 | [6] 0.051 | [7] 0.162 | [8] 0.085 | [9] 0.069 | IRAK-1-4 Inhibitor I -0.114 | [10] -0.011 | ralimetinib 0.137 | [11] 0.092 | [12] -0.451 | [13] 0.043 | pinometostat -0.096 | [15] 0.061 | [14] -0.025

DDX42 (UniProt Q86XP3)
inactive: erlotinib 0.032 | [1] 0.147 | [2] 0.251 | [3] -0.115 | [4] 0.225 | [5] -0.047 | [6] 0.114 | [7] -0.153 | [8] -0.042 | [9] 0.043 | IRAK-1-4 Inhibitor I -0.187 | ibrutinib -0.03 | [10] -0.513 | ralimetinib 0.012 | [11] -0.462 | [12] -0.068 | [13] 0.104 | pinometostat 0.254 | [14] 0.089

Retrieved one by one from above, two records:
DDX42 (UniProt Q86XP3)
inactive: erlotinib 0.032 | [1] 0.147 | [2] 0.251 | [3] -0.115 | [4] 0.225 | [5] -0.047 | [6] 0.114 | [7] -0.153 | [8] -0.042 | [9] 0.043 | IRAK-1-4 Inhibitor I -0.187 | ibrutinib -0.03 | [10] -0.513 | ralimetinib 0.012 | [11] -0.462 | [12] -0.068 | [13] 0.104 | pinometostat 0.254 | [14] 0.089

DNAAF2 (UniProt Q9NVR5)
inactive: erlotinib 0.046 | [1] 0.021 | [2] 0.108 | [3] -0.003 | [4] 0.01 | [5] 0.016 | [6] -0.018 | [7] -0.025 | [8] 0.021 | [9] -0.025 | IRAK-1-4 Inhibitor I -0.02 | ibrutinib -0.023 | [10] 0.014 | ralimetinib 0.022 | [11] 0.013 | [12] -0.025 | [13] -0.054 | pinometostat -0.023 | [14] -0.013

The list continues:

DGKA (UniProt P23743)
inactive: erlotinib 0.011 | [2] 0.176 | [3] 0.368 | [5] -0.037 | [6] -0.037 | ibrutinib 0.135 | ralimetinib -0.304 | [11] 0 | [12] -0.222 | [13] 0.189

DMXL2 isoform 3 (UniProt Q8TDJ6)
inactive: erlotinib 0.194 | [1] -0.063 | [2] -0.033 | [3] -0.054 | [4] 0.208 | [5] -0.121 | [6] -0.024 | [7] -0.019 | [8] 0.164 | [9] 0.005 | ibrutinib 0.282 | [10] -0.064 | ralimetinib -0.095 | [11] -0.075 | [12] -0.197 | [13] -0.047 | [14] 0.047

DHRSX (UniProt Q8N5I4)
inactive: erlotinib 0.063 | [1] 0.211 | [3] 0.045 | [4] 0.141 | [5] 0.11 | [7] -0.228 | IRAK-1-4 Inhibitor I 0.037 | ibrutinib 0.037 | [10] -0.011 | [12] 0.116 | pinometostat 0.056 | [15] 0.116

DHTKD1 (UniProt Q96HY7)
inactive: erlotinib -0.124 | [2] -0.013 | [3] 0.074 | [5] 0.179 | [8] 0.087 | [9] -0.035 | IRAK-1-4 Inhibitor I -0.147 | ibrutinib -0.072 | [11] -0.14 | [12] 0.099 | pinometostat -0.029 | [14] -0.062

DNAH5 (UniProt Q8TE73)
inactive: erlotinib 0.014 | [2] 0.036 | [3] 0.001 | [5] -0.005 | [6] -0.067 | [8] 0.084 | [9] 0.095 | IRAK-1-4 Inhibitor I 0.074 | ibrutinib 0.039 | ralimetinib 0.004 | [11] 0.031 | [12] -0.09 | [13] 0.009 | pinometostat 0.055 | [14] 0.106

DIPK2A (UniProt Q8NDZ4)
inactive: erlotinib -0.052 | [1] 0.148 | [3] -0.017 | [4] -0.026 | [5] 0.064 | [6] -0.024 | [7] -0.027 | [8] -0.04 | [9] -0.166 | IRAK-1-4 Inhibitor I 0.072 | ibrutinib -0.161 | [10] -0.066 | ralimetinib 0.014 | [12] -0.02 | [13] -0.016 | pinometostat 0.002 | [15] 0.25 | [14] -0.129

DDR1 isoform 5 (UniProt Q08345)
inactive: erlotinib -0.187 | [2] -0.045 | [3] -0.003 | [6] 0.008 | IRAK-1-4 Inhibitor I 0.153 | ralimetinib 0.017 | [11] 0.054 | [12] -0.248 | [13] 0.256 | pinometostat -0.063

DDB1 isoform 2 (UniProt Q16531)
inactive: [2] 0.017 | [5] 0.205 | ibrutinib -0.034 | [11] 0.078

DMTN isoform 2 (UniProt Q08495)
inactive: [5] -0.078 | [6] 0.115 | [8] -0.152 | [9] 0.151 | IRAK-1-4 Inhibitor I 0.152 | ibrutinib 0.201 | ralimetinib 0.02 | [13] -0.133 | pinometostat 0.057 | [15] -0.028 | [14] 0.077
